Literature values as cited in patent US9539176B2, “Process for manufacturing a pharmaceutical dosage form comprising nifedipine and candesartan cilexetil” (BAYER PHARMA AKTIENGESELLSCHAFT, priority 2012, dated 2017).

Details: in vivo; cited from earlier work

## COC(=O)C1=C(C)NC(C)=C(C(=O)OC)C1c1ccccc1[N+](=O)[O-] [nifedipine]
  plasma half-life: about 2 hours
